Measurements published in article PMC5702613.
No constants are given. Whether binding was seen depends on the method and setting. Some binding calls cover weakened binding; strength is not graded here.

Tests used:
[1] = biological target: Homo sapiens TRAF6 RZ3 (RING domain and first three zinc fingers, residues 50-211) (Homo sapiens) (UniProt Q9Y4K3); experiment: SEC-MALS; oligomeric status of TRAF6; MALS (Dawn 8+) coupled to Superdex 200 10/300 GL; dimer to monomers; both purified
[2] = biological target: Homo sapiens TRAF6 RZ3 (RING domain and first three zinc fingers, residues 50-211) (Homo sapiens) (UniProt Q9Y4K3); experiment: SEC; each TRAF6 protein (wild type or mutant) at 40 µM on Superdex 200 Increase 10/300; dimer to monomers; both purified

binding [1]: binds weakly
binding [2]: binds weakly
B1: Homo sapiens TRAF6 RZ3 (RING domain and first three zinc fingers, residues 50-211) (domain or fragment, UniProt Q9Y4K3 50-211)
chain: MEEIQGYDVEFDPPLESKYECPICLMALREAVQTPCGHRFCKACIIKSIRDAGHKCPVDNEILLENQLFPDNFAKREILSLMVKCPNEGCLHKMELRHLEDHQAHCEFALMDCPQCQRPFQKFHINIHILKDCPRRQVSCDNCAASMAFEDKEIHDQNCPLA
